For two substances, binding results are on record in patent US20220387557A1.

By UniProt entry, the sequences of proteins in these tests, tags left out. Residues count along the entry.
UniProt P19438, residues 22-211: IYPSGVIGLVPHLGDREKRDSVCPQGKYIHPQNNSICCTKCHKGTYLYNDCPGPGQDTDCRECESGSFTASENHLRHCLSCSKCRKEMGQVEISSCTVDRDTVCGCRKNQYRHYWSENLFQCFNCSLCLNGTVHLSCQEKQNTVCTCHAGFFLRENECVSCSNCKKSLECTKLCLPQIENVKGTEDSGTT
UniProt P06804, residues 80-235: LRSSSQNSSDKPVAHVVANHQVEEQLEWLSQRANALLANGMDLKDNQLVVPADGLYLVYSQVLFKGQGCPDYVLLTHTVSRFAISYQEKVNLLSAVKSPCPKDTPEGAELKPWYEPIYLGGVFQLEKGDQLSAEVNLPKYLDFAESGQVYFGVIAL

No constants are given. Whether binding was seen depends on the method and setting. Some entries that bind do so weakly or less than the wild type.

Test [1] addresses Fc tagged human TNFR1 (Sino Biological) (human) (UniProt P19438). Nature of the test: SPR (Biacore T200) single cycle kinetics, Fc-tagged receptor captured on Protein A chip, TNF protein as analyte at 1.67-15 nM. Background: Surface plasmon resonance follows binding to a sensor surface in real time, without labels.
Test [2] has the same target. Nature of the test: phage binding test on Fc tagged receptor.

For the substance “mouse TNF (mTNF), soluble protein expressed from pANT65 (from UniProt P06804 80-235) (ligand)”, the binding entry in test [1] is “binds”. Turning to “phage displaying mTNF (gene III fusion, pANT65) (from UniProt P06804 80-235)”, in test [2], the binding entry is on record as “binds”.
